We go through 3 molecules from patent publication US20240383984A1 (Genentech, published 2024).

Amino acid sequences for entries named in this document (tags omitted). Residues count along the entry.
UniProt P07766, residues 23-126: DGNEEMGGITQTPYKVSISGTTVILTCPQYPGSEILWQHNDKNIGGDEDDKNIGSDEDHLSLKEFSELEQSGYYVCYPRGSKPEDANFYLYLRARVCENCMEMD

Sequences and labels used below:
B1: bis-Fab B (bispecific antibody, V domains shown)
VH 1: EVQLVESGPGLVKPSETLSLTCTVSGFSLTRFGVHWVRQPPGKGLEWLGVIWRGGSTDYNAAFVSRLTISKDNSKNQVSLKLSSVTAADTAVYYCSNHYYGSSDYALDNWGQGTLVTVSS
VL 1: DIQMTQSPSSLSASVGDRVTITCKASQDVRNLVVWFQQKPGKAPKLLIYSGSYRYSGVPSRFSGSGSGTDFTLTISSLQPEDFATYYCQQHYSPPYTFGQGTKVEIK
VH 2: EVQLVQSGAEVKKPGASVKVSCKASGFTFTSYYIHWVRQAPGQGLEWIGWIYPENDNTKYNEKFKDRVTITADTSTSTAYLELSSLRSEDTAVYYCARDGYSRYYFDYWGQGTLVTVSS
VL 2: DIVMTQSPDSLAVSLGERATICCKSSQSLLNSRTRKNYLAWYQQKPGQSPKLLIYWTSTRKSGVPDRFSGSGSGTDFTLTISSLQAEDVAVYYCKQSFILRTFGQGTKVEIK
notes: bis-Fab: 1G7.v85 Fab (HC A114C, constant part) crosslinked to 38E4.v1 Fab (LC N22C)
B2: F(ab′)2 A (bispecific antibody, V domains shown)
VH 1: B1 VH 1
VL 1: B1 VL 1
VH 2: B1 VH 2
VL 2: B1 VL 2 with C22N
B3: bis-Fab D (bispecific antibody, V domains shown)
VH 1: B1 VH 1
VL 1: B1 VL 1
VH 2: B1 VH 2
VL 2: B1 VL 2
notes: bis-Fab: 1G7.v85 Fab (LC A149C, constant part) crosslinked to 38E4.v1 Fab (LC N22C)

Substitutions are numbered along the chain they refer to. In names and notes the source's numbering stands. No constants are given. Whether binding was seen depends on the method and setting. Some binding calls cover weakened binding; strength is not graded here.

The test addresses T1, human CD3ε (human, UniProt P07766 23-126, limits assumed).
T1 construct: also called hCD3ε
The experiment in a line: ELISA on CD3.
As to B1, the binding result is reported as “binds”.
Consider B2, for which the binding result was “binds”.
Regarding B3, the binding entry is listed as “binds”.
